Experimental data as given in article PMC5370020.
Where a chain is given by its changes, count along the chain named. These are yes or no findings as the source states them, for the method shown. Binding seen in cells or lysates may run through a third protein. Some binding calls cover weakened binding; strength is not graded here. Tags and fused reporters may be left off the sequences shown.

Chains of the proteins cited; added tags and fusions are not shown.
UniProt O75376: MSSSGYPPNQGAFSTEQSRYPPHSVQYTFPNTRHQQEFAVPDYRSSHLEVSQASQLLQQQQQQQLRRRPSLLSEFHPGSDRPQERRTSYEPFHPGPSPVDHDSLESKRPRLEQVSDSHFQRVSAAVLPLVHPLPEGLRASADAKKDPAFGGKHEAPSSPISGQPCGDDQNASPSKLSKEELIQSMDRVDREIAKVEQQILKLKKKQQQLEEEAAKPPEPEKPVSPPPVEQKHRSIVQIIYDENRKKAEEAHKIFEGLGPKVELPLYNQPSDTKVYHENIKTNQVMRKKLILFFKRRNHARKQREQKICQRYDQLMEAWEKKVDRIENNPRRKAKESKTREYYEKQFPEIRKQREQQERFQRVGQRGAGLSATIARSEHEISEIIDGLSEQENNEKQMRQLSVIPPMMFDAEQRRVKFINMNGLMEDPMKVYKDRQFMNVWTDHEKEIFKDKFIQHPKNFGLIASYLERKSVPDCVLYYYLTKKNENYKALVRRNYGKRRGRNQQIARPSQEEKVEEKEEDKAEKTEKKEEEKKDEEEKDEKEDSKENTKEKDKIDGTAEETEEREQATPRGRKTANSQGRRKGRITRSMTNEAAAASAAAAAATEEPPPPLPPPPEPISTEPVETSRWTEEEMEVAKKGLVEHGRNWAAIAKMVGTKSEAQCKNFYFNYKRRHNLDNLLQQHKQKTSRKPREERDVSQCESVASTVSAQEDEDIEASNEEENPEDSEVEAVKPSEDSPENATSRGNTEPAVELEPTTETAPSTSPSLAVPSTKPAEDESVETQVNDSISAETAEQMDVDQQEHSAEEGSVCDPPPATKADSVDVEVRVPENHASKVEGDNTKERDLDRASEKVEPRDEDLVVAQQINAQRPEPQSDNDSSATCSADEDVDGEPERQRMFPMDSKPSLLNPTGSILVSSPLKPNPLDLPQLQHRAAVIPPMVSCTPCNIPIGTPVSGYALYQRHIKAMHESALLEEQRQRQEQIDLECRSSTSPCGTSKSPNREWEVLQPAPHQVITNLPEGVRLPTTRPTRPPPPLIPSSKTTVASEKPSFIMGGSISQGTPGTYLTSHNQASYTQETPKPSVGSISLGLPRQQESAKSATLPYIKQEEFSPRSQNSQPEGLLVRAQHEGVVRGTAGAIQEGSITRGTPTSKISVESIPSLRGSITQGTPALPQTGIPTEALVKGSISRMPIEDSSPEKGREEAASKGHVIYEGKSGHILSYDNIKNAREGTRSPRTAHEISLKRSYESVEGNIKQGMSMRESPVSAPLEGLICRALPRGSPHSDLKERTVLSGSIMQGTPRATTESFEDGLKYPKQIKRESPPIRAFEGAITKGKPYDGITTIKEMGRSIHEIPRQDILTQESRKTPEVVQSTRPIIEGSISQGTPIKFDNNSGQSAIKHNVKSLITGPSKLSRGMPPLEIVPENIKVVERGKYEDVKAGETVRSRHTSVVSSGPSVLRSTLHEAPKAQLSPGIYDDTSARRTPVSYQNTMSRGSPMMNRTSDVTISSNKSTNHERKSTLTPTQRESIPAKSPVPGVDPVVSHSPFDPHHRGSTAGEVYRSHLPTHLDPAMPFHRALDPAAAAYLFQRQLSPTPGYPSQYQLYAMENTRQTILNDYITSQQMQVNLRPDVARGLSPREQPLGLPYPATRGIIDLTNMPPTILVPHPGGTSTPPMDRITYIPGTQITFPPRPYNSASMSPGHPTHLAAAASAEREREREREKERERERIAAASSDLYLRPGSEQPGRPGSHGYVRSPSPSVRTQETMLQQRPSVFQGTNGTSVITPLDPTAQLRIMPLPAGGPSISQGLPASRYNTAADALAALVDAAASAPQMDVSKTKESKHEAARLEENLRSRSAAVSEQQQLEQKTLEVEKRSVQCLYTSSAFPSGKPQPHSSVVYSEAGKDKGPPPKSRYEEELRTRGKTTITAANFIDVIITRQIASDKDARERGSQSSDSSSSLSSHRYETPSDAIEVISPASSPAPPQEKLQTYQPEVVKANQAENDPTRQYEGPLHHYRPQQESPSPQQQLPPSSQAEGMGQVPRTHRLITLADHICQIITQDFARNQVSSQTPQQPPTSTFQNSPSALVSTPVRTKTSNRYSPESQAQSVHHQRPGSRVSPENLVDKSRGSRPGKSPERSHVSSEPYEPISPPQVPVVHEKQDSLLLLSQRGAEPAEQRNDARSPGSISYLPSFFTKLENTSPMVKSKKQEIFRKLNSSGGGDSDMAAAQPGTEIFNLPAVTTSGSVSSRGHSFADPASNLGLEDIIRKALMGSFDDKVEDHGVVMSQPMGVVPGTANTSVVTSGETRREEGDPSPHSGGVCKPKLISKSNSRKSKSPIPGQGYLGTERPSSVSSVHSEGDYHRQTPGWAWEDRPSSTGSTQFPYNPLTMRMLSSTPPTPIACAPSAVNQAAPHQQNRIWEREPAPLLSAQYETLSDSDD

Key:
Assay in all cases: co-IP; whole cell lysates of cells transfected with GFP-TBL1XR1 (293T by the abstract); GFP antibody and protein G magnetic beads, 2 h at 4°C; blotted for NCoR and HDAC3
[1] = target: T1, GFP-tagged TBL1XR1 G187R (human) (UniProt Q9BZK7)
T1 sequence: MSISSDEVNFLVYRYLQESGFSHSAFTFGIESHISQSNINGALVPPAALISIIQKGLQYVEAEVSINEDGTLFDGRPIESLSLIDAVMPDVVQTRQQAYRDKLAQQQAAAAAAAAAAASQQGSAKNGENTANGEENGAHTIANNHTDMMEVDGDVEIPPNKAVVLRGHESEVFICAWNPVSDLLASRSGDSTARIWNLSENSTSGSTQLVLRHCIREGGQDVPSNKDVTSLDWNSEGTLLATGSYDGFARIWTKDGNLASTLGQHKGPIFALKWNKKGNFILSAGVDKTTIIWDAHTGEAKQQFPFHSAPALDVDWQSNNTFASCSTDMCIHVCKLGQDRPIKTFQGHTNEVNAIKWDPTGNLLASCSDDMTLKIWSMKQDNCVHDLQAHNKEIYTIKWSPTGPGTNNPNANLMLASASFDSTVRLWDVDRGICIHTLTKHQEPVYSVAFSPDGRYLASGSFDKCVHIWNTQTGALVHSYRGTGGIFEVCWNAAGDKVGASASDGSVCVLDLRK

[2] = target: T2, GFP-tagged TBL1XR1 H348Q (human) (UniProt Q9BZK7)
T2 sequence: T1 sequence with R187G, H348Q

[3] = target: T3, GFP-tagged TBL1XR1 L282P (human) (UniProt Q9BZK7)
T3 sequence: T1 sequence with R187G, L282P

[4] = target: T4, GFP-tagged TBL1XR1 S459N (human) (UniProt Q9BZK7)
T4 sequence: T1 sequence with R187G, S459N

[5] = target: T5, GFP-tagged wild-type TBL1XR1 (human) (UniProt Q9BZK7)
T5 sequence: T1 sequence with R187G

Measured: binding

nuclear receptor corepressor (NCoR) (from UniProt O75376 1-2440)
binds: all assays above
